Assay results: US20160194644A1
No constants are given. Whether binding was seen depends on the method and setting. In cells and extracts the contact can be indirect. Some entries that bind do so weakly or less than the wild type. Tags and fused reporters may be left off the sequences shown.

Amino acid sequences for entries named in this document (tags omitted). A change or cut given only in a name is not applied to a line headed by its entry. Chains listed by the source or under a name are the forms on record and can include a tag or linker.
UniProt P13569: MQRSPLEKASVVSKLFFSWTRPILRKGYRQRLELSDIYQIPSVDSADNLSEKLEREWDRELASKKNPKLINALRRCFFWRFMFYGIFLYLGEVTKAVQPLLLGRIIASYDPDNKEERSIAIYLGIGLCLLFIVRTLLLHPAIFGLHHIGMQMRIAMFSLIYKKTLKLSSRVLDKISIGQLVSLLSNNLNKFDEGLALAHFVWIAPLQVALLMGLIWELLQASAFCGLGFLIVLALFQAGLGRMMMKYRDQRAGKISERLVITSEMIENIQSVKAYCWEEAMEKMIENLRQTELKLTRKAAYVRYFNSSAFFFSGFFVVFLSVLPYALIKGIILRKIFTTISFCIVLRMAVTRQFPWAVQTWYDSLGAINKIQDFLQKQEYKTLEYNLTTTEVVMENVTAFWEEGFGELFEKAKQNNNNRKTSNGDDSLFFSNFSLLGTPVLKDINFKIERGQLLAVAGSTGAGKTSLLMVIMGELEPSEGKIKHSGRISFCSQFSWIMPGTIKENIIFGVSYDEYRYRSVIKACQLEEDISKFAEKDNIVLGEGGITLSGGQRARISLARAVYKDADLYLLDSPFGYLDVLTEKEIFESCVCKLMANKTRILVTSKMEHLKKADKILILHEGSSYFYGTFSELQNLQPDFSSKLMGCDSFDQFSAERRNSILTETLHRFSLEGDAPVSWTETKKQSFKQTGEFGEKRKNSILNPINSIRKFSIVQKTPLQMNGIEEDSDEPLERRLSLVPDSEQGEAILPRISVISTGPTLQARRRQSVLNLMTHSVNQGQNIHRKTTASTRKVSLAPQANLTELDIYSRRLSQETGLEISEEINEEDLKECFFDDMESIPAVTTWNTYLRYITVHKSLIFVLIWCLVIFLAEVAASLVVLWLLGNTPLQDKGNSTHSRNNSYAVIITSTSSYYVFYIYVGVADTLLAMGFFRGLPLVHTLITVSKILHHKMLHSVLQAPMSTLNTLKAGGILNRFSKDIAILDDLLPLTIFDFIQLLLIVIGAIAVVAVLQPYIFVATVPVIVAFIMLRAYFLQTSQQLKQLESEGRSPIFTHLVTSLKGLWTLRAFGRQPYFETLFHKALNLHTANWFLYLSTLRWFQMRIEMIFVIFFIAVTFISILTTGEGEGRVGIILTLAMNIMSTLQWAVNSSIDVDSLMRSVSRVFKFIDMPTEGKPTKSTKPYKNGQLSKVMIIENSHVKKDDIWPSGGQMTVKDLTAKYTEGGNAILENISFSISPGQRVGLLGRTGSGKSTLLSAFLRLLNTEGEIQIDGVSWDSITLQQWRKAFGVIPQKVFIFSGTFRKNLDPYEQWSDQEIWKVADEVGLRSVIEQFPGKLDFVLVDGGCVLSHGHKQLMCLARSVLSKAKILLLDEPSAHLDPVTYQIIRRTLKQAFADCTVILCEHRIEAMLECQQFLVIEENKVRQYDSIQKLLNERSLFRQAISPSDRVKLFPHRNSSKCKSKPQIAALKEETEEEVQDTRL
deltaF508 CFTR-HA (HA tag epitope at the C terminal end) (P13569, form named): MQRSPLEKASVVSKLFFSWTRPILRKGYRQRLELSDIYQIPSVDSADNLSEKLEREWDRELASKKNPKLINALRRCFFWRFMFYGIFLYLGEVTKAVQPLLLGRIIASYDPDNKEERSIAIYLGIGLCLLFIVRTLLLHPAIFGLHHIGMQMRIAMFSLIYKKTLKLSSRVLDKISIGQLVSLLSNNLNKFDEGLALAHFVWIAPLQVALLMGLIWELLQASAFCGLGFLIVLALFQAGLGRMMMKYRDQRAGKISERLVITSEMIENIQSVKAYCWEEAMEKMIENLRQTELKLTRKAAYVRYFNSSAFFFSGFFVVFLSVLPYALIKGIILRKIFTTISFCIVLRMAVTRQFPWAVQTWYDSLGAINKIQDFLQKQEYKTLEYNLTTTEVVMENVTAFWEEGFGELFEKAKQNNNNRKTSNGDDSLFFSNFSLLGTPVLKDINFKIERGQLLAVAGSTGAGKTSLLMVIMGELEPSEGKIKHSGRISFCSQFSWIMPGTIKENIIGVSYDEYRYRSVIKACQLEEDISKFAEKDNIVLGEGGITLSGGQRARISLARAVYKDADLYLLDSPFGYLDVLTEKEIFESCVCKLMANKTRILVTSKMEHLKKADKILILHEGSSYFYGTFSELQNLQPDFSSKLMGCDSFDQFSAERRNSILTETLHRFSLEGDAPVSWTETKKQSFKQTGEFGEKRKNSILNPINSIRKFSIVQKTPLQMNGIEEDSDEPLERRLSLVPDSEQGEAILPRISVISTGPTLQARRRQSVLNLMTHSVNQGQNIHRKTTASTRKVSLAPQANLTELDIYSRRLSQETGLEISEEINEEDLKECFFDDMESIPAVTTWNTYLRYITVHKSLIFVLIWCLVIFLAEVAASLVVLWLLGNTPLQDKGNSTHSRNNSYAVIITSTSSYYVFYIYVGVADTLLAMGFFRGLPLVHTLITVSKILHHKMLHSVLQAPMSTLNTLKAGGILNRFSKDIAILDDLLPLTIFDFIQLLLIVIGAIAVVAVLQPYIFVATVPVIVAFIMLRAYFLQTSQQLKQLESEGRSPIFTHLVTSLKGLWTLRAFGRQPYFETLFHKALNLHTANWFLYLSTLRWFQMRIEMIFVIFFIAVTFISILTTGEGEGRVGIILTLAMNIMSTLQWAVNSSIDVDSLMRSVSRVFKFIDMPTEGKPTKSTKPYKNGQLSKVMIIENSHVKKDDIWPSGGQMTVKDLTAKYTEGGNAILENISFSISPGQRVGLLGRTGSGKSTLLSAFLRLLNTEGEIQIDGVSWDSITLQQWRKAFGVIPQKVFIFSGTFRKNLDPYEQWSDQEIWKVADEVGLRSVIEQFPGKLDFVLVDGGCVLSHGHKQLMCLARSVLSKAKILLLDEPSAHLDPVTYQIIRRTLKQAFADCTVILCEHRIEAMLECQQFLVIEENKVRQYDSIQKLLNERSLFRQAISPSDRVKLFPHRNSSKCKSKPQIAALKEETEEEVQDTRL

Columns and labels:
HA-UBE2J1 [1] = target: T1, HA-UBE2J1 (UniProt Q9Y385); experiment: Flag co-immunoprecipitation from HEK293T cells co-transfected with HA-UBE2J1 (FIG. 4B legend)
T1 sequence (looked up): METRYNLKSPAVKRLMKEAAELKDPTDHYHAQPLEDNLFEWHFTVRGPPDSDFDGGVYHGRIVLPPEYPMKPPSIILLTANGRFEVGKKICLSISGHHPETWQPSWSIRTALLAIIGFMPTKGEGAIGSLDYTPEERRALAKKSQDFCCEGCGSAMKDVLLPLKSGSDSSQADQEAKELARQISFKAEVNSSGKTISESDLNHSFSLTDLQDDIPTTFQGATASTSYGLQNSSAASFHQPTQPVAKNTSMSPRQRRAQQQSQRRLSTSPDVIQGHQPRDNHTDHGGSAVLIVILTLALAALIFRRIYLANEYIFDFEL

myc-UBE2J2 [2] = target: T2, myc-UBE2J2 (UniProt Q8N2K1); experiment: Flag co-immunoprecipitation from HEK293T cells co-transfected with myc-UBE2J2 (FIG. 4B legend)
T2 sequence (looked up): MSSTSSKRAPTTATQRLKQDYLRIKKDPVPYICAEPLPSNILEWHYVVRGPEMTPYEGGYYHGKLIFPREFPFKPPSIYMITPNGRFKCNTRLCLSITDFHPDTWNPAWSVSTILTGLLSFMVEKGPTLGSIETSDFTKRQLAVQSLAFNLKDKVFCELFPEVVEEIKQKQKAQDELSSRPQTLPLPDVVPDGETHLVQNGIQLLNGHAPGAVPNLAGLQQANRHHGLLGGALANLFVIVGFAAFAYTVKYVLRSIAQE

endogenous Erlin2 [3] = target: T3, endogenous Erlin2 (UniProt O94905); experiment: Flag co-immunoprecipitation from transfected HEK293T cells, immunoblot (FIG. 4A legend)
T3 sequence (looked up): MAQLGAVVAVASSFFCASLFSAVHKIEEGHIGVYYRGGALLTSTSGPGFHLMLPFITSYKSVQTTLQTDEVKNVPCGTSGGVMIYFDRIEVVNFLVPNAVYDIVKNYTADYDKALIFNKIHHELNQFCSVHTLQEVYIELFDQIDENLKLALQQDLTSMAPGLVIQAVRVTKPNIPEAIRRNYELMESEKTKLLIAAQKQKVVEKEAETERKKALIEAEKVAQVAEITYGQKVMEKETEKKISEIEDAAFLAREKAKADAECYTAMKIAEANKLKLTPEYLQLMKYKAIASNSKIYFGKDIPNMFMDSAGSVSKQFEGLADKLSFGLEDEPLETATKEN

endogenous Derlin-1 [4] = target: T4, endogenous Derlin-1 (UniProt Q9BUN8); experiment: as above
T4 sequence (looked up): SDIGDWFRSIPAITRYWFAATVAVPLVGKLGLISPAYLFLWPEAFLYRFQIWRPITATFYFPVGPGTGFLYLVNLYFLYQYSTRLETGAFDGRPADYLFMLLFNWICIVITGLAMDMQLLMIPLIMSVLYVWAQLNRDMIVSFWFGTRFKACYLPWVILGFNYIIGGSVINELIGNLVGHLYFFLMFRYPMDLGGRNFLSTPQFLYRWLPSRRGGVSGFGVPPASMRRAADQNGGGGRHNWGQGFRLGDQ

HA-UBE2J1 [5] = target: T1, HA-UBE2J1; experiment: Flag co-immunoprecipitation from HEK293T cells co-transfected with HA-UBE2J1
HA-UBE2J1 [6] = target: T1, HA-UBE2J1; experiment: Flag co-immunoprecipitation (refers to FIG. 4B)
myc-UBE2J2 [7] = target: T2, myc-UBE2J2; experiment: Flag co-immunoprecipitation (refers to FIG. 4B)
myc-UBE2J2 [8] = target: T2, myc-UBE2J2; experiment: Flag co-immunoprecipitation from HEK293T cells co-transfected with myc-UBE2J2
[9] = target: WT CFTR-HA (HA tag epitope at the C terminal end) (UniProt P13569); experiment: co-immunoprecipitation from co-transfected HEK293T cells, MG132 treated (FIG. 5D legend)
[10] = target: deltaF508 CFTR-HA (HA tag epitope at the C terminal end) (UniProt P13569); experiment: as above
[11] = target: WT CFTR-HA (HA tag epitope at the C terminal end) (UniProt P13569); experiment: anti-HA co-immunoprecipitation from co-transfected HEK293T cells, with MG132
[12] = target: deltaF508 CFTR-HA (HA tag epitope at the C terminal end) (UniProt P13569); experiment: as above
endogenous Erlin2 [13] = target: T3, endogenous Erlin2; experiment: Flag co-immunoprecipitation from transfected HEK293T cells, immunoblot for endogenous Erlin2
endogenous Derlin-1 [14] = target: T4, endogenous Derlin-1; experiment: Flag co-immunoprecipitation from transfected HEK293T cells, immunoblot for endogenous Derlin-1
[15] = target: deltaF508 CFTR-HA (HA tag epitope at the C terminal end) (UniProt P13569); experiment: anti-HA co-immunoprecipitation from co-transfected HEK293T cells
[16] = target: deltaF508 CFTR-HA (HA tag epitope at the C terminal end) (UniProt P13569); experiment: reciprocal anti-Flag co-immunoprecipitation from co-transfected HEK293T cells

Measured: binding

B1: Flag-RNF185 (wild type, full length human RNF185 with N-terminal Flag tag) (enzyme, not shown: small tags and cut ends)
chain: ASKGPSASASPENSSAGGPSGSSNGAGESGGQDSTFECNICLDTAKDAVISLCGHLFCWPCLHQWLETRPNRQVCPVCKAGISRDKVIPLYGRGSTGQQDPREKTPPRPQGQRPEPENRGGFQGFGFGDGGFQMSFGIGAFPFGIFATAFNINDGRPPPAVPGTPQYVDEQFLSRLFLFVALVIMFWLLIA
not listed: [15] | [16]
binds: all other assays above

B2: RNF185 RM (C39A, C42A), Flag-tagged (enzyme, human, UniProt Q96GF1 1-192, looked up, not shown: small tags and cut ends)
chain: MASKGPSASASPENSSAGGPSGSSNGAGESGGQDSTFEANIALDTAKDAVISLCGHLFCWPCLHQWLETRPNRQVCPVCKAGISRDKVIPLYGRGSTGQQDPREKTPPRPQGQRPEPENRGGFQGFGFGDGGFQMSFGIGAFPFGIFATAFNINDGRPPPAVPGTPQYVDEQFLSRLFLFVALVIMFWLLIA
binds: [15] | [16]
